According to patent US11980613B2, “Methods for reversing HIV latency using BAF complex modulating compounds” (priority 2018, dated 2024):

Tested on: mESCs
Experiment: RNA-Seq of compound treated mESCs compared with Brg1 and Arid1a knockout
Assay type: cell-based, mouse
Details: 30 μM, 18 h

## CO[C@H]1CN(C)C(=O)c2cc(NC(=O)NC(C)C)ccc2OC[C@H](C)N(Cc2ccc(-c3ccccn3)cc2)C[C@@H]1C [BRD-K98645985]
  differentially regulated genes, down: 1916 genes
  differentially regulated genes, up: 1518 genes
1.5-fold change, P<0.05
  differentially regulated genes: 3534 genes
